Article PMC5216374
No constants are given. Whether binding was seen depends on the method and setting. In cells and extracts the contact can be indirect. These calls come from enrichment with a bait or labelling near it, and not all partners need be listed. Where a sequence is shown, tags or fusion partners need not be part of it.

Sequences of proteins named here, by UniProt entry; tags and fusion partners are left off.
UniProt P27708: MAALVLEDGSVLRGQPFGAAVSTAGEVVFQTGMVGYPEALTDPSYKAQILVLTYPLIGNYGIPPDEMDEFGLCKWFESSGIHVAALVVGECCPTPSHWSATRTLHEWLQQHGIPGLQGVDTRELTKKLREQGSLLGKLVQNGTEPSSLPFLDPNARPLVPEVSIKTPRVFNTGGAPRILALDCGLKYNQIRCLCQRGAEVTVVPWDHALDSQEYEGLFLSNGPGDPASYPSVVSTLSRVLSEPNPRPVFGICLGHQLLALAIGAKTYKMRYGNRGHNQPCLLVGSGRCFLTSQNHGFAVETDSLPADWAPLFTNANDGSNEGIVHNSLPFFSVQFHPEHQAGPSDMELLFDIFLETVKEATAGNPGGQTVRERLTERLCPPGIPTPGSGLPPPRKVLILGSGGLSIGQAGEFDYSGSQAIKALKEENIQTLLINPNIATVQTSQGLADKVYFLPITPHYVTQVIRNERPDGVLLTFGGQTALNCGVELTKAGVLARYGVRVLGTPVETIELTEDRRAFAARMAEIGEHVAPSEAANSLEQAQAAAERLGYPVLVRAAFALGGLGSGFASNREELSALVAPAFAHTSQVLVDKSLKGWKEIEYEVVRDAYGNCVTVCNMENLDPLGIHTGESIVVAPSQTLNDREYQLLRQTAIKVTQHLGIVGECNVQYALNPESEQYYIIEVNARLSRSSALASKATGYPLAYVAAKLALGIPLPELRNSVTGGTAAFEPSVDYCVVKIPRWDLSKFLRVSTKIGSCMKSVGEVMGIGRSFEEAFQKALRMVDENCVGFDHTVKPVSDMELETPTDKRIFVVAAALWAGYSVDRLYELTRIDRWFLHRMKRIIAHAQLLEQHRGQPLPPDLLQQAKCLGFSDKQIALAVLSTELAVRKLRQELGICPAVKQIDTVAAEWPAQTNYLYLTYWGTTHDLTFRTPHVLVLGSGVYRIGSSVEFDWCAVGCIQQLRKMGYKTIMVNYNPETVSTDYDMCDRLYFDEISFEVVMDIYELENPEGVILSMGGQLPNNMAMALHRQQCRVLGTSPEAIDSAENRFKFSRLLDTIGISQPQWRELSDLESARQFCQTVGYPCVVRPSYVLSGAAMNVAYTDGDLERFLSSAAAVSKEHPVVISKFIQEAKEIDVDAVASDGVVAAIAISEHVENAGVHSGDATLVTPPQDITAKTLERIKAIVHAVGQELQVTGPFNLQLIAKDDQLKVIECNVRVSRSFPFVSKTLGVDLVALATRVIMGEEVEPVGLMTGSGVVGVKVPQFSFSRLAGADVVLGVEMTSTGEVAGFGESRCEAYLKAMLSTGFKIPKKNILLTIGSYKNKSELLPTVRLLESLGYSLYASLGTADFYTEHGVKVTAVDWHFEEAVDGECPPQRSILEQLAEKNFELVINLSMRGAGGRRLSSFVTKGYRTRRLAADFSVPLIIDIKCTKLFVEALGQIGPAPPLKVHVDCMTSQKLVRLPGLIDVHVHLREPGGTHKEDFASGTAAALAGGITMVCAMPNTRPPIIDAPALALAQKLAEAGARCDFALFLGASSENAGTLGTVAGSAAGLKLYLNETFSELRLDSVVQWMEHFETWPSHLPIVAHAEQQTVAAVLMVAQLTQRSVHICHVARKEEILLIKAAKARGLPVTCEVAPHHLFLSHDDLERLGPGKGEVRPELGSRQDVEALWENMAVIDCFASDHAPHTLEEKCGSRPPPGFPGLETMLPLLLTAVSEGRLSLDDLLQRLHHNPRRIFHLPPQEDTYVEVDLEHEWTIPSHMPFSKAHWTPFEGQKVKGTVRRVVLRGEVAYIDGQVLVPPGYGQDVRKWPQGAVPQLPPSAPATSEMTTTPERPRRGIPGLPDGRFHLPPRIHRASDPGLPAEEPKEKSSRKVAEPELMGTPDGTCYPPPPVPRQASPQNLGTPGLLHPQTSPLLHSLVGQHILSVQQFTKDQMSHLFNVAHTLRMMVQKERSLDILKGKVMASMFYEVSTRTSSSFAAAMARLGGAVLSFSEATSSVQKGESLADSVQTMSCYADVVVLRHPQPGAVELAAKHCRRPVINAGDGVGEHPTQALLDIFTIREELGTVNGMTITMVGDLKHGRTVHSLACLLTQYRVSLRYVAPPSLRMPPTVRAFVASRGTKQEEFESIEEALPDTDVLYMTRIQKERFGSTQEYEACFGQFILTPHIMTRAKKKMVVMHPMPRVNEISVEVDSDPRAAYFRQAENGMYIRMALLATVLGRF
UniProt P25685: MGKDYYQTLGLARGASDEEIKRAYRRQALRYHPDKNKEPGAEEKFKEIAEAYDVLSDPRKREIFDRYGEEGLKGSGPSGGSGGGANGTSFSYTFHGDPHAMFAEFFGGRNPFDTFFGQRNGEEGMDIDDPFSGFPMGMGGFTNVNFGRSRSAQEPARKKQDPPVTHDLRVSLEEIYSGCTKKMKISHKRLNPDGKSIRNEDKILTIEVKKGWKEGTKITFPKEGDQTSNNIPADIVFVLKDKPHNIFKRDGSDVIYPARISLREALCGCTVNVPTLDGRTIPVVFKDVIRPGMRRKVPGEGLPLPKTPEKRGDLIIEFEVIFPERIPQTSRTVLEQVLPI
UniProt Q92538: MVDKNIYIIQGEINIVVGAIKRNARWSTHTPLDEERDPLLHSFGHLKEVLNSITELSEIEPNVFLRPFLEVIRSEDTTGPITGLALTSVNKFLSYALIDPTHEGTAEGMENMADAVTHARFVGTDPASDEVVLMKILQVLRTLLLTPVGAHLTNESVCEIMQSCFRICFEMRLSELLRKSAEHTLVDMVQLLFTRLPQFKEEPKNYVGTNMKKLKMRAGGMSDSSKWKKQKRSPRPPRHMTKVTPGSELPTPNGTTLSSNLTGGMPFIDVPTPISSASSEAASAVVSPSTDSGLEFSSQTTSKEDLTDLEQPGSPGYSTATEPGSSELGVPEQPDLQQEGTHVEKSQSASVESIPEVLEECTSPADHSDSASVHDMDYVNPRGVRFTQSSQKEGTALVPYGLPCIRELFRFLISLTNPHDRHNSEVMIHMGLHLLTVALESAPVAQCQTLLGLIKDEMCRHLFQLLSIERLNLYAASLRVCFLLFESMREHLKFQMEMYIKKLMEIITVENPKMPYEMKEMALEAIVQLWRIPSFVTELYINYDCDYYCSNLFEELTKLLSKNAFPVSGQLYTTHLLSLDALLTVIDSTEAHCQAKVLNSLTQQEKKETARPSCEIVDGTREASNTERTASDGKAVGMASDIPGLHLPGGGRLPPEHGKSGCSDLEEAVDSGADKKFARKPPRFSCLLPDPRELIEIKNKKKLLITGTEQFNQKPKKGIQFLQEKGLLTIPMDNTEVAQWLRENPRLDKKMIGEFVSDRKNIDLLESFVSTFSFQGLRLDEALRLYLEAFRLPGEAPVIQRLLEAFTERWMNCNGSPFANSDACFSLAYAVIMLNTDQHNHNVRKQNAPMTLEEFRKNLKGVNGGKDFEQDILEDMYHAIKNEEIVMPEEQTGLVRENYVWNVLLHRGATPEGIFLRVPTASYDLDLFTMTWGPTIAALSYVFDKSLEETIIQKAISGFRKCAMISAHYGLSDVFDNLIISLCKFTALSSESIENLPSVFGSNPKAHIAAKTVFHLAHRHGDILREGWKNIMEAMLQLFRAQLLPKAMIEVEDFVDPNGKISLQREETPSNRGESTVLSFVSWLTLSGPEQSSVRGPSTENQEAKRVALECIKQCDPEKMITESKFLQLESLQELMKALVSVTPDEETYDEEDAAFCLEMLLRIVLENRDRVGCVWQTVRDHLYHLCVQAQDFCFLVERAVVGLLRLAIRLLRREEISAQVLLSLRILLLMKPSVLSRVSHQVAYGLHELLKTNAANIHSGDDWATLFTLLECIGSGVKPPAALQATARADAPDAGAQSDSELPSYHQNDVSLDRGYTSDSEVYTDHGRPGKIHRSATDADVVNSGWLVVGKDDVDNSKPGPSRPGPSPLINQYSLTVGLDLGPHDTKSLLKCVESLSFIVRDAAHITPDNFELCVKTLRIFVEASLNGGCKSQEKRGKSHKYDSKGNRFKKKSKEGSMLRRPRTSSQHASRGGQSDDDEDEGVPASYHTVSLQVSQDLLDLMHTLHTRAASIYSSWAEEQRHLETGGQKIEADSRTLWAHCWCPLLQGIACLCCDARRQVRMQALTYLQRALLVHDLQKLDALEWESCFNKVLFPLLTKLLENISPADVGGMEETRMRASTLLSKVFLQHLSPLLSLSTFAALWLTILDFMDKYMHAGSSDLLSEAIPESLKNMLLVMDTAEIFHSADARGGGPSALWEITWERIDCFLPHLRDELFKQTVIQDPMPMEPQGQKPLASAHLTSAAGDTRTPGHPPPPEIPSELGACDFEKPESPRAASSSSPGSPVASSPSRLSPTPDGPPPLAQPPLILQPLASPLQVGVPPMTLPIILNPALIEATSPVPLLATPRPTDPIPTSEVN
UniProt Q9UHV9: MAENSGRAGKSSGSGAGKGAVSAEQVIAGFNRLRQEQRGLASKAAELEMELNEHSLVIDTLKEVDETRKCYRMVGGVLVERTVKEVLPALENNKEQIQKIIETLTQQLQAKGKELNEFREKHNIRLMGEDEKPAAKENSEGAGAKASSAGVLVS
UniProt O14737: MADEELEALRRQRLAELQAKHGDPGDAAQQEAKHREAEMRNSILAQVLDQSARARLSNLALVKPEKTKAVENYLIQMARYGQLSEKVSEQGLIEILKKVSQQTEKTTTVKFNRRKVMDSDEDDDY
UniProt P61289: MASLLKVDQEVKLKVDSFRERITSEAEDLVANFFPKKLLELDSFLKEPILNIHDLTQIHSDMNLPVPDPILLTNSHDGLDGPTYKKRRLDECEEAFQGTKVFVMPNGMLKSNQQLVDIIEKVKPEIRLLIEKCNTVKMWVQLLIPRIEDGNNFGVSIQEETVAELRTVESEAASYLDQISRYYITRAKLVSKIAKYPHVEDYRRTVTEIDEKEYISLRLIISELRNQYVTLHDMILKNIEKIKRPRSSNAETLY
UniProt O14818: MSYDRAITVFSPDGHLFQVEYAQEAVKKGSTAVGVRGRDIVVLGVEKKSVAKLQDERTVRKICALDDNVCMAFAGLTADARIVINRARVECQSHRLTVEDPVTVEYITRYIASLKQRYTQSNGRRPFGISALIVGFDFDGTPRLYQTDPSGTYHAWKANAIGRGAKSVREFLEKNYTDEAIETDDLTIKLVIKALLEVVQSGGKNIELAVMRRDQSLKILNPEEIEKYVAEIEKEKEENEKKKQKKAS
UniProt P63208: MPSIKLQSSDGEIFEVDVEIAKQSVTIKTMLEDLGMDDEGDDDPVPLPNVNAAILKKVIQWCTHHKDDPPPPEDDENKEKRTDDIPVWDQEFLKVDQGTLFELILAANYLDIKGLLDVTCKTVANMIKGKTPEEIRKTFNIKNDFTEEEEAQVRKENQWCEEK
UniProt O95347: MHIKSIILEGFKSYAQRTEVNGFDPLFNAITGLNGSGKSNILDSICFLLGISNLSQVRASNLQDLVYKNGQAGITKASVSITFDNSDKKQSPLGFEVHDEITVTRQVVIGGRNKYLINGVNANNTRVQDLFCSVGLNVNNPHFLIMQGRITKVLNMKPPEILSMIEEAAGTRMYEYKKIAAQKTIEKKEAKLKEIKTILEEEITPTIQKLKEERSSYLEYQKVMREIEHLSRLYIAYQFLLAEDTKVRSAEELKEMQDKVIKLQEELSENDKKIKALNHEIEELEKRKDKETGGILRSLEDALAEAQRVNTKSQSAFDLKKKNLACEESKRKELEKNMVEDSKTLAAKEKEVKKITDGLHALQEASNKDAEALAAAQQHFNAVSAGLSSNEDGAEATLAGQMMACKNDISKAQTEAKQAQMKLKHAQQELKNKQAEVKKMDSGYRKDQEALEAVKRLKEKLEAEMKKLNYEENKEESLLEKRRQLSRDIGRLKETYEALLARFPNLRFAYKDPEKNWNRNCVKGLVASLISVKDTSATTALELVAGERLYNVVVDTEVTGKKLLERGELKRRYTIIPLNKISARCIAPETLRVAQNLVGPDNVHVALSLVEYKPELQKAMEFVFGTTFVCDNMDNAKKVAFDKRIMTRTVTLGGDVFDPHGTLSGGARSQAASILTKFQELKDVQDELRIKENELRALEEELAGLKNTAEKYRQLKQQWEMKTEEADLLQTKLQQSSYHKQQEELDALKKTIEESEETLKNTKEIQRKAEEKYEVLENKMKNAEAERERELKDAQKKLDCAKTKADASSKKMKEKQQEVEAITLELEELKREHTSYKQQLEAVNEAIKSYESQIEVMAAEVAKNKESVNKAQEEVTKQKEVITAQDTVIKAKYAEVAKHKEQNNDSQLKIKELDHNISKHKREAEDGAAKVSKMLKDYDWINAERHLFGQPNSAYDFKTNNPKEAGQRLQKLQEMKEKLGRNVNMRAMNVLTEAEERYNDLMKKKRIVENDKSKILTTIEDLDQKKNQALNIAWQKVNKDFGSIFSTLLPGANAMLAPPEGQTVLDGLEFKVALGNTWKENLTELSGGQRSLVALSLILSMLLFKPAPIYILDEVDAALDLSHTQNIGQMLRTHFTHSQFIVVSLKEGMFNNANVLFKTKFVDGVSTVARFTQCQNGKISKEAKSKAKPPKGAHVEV

T1: full length TRIM14 ORF tagged at the C-terminus with 3xFLAG (human) (UniProt Q14142)
T1 sequence: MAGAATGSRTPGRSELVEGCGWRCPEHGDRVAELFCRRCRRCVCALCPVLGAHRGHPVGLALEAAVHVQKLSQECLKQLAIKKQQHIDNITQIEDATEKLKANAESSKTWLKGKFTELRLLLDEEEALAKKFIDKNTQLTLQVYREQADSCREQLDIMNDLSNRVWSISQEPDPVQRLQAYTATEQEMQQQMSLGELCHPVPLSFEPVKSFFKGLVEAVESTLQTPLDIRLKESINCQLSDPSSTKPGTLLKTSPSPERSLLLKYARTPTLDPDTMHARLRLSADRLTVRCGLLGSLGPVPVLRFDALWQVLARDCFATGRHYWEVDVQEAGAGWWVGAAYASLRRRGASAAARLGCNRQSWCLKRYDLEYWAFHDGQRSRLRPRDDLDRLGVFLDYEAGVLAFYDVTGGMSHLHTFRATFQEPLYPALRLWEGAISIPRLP

B1: Serine/threonine-protein phosphatase 6 regulatory subunit 1 (protein, UniProt Q9UPN7 1-881)
chain: MFWKFDLHTSSHLDTLLEREDLSLPELLDEEDVLQECKVVNRKLLDFLLQPPHLQAMVAWVTQEPPDSGEERLRYKYPSVACEILTSDVPQINDALGADESLLNRLYGFLQSTGSLNPLLASFFSKVMGILINRKTDQLVSFLRKKDDFVDLLLQHIGTSAIMDLLLRLLTCVERPQLRQDVVNWLNEEKIVQRLIEQIHPSKDENQHSNASQSLCDIIRLSREQMIQVQDSPEPDQLLATLEKQETIEQLLSNMFEGEQSQSVIVSGIQVLLTLLEPRRPRSESVTVNSFFSSVDGQLELLAQGALESTVSSVGALHALRPRLSCFHQLLLEPPKLEPLQMTWGMLAPPLGNTRLHVVKLLASALSANDAALTHELLALDVPNTMLDLFFHYVFNNFLHAQVEGCVSTMLSLGPPPDSSPETPIQNPVVKHLLQQCRLVERILTSWEENDRVQCAGGPRKGYMGHLTRVAGALVQNTEKGPNAEQLRQLLKELPSEQQEQWEAFVSGPLAETNKKNMVDLVNTHHLHSSSDDEDDRLKEFNFPEEAVLQQAFMDFQMQRMTSAFIDHFGFNDEEFGEQEESVNAPFDKTANITFSLNADDENPNANLLEICYKDRIQQFDDDEEEEDEEEAQGSGESDGEDGAWQGSQLARGARLGQPPGVRSGGSTDSEDEEEEDEEEEEDEEGIGCAARGGATPLSYPSPGPQPPGPSWTATFDPVPTDAPTSPRVSGEEELHTGPPAPQGPLSVPQGLPTQSLASPPARDALQLRSQDPTPPSAPQEATEGSKVTEPSAPCQALVSIGDLQATFHGIRSAPSSSDSATRDPSTSVPASGAHQPPQTTEGEKSPEPLGLPQSQSAQALTPPPIPNGSAPEGPASPGSQ
B2: E3 ubiquitin-protein ligase Praja-1 (protein, UniProt Q8NG27 1-643)
chain: MGQESSKPVWPNPTGGYQSNTGRRYGRRHAYVSFRPPTSQRERIASQRKTNSEVPMHRSAPSQTTKRSRSPFSTTRRSWDDSESSGTNLNIDNEDYSRYPPREYRASGSRRGMAYGHIDSYGADDSEEEGAGPVERPPVRGKTGKFKDDKLYDPEKGARSLAGPPPHFSSFSRDVREERDKLDPVPAARCSASRADFLPQSSVASQSSSEGKLATKGDSSERERREQNLPARPSRAPVSICGGGENTSKSAEEPVVRPKIRNLASPNCVKPKIFFDTDDDDDMPHSTSRWRDTANDNEGHSDGLARRGRGESSSGYPEPKYPEDKREARSDQVKPEKVPRRRRTMADPDFWTHSDDYYKYCDEDSDSDKEWIAALRRKYRSREQTLSSSGESWETLPGKEEREPPQAKVSASTGTSPGPGASASAGAGAGASAGSNGSNYLEEVREPSLQEEQASLEEGEIPWLQYHENDSSSEGDNDSGHELMQPGVFMLDGNNNLEDDSSVSEDLEVDWSLFDGFADGLGVAEAISYVDPQFLTYMALEERLAQAMETALAHLESLAVDVEVANPPASKESIDALPEILVTEDHGAVGQEMCCPICCSEYVKGEVATELPCHHYFHKPCVSIWLQKSGTCPVCRCMFPPPL
B3: A-kinase anchor protein 8-like (protein, UniProt Q9ULX6 1-646)
chain: MSYTGFVQGSETTLQSTYSDTSAQPTCDYGYGTWNSGTNRGYEGYGYGYGYGQDNTTNYGYGMATSHSWEMPSSDTNANTSASGSASADSVLSRINQRLDMVPHLETDMMQGGVYGSGGERYDSYESCDSRAVLSERDLYRSGYDYSELDPEMEMAYEGQYDAYRDQFRMRGNDTFGPRAQGWARDARSGRPMASGYGRMWEDPMGARGQCMSGASRLPSLFSQNIIPEYGMFQGMRGGGAFPGGSRFGFGFGNGMKQMRRTWKTWTTADFRTKKKKRKQGGSPDEPDSKATRTDCSDNSDSDNDEGTEGEATEGLEGTEAVEKGSRVDGEDEEGKEDGREEGKEDPEKGALTTQDENGQTKRKLQAGKKSQDKQKKRQRDRMVERIQFVCSLCKYRTFYEDEMASHLDSKFHKEHFKYVGTKLPKQTADFLQEYVTNKTKKTEELRKTVEDLDGLIQQIYRDQDLTQEIAMEHFVKKVEAAHCAACDLFIPMQFGIIQKHLKTMDHNRNRRLMMEQSKKSSLMVARSILNNKLISKKLERYLKGENPFTDSPEEEKEQEEAEGGALDEGAQGEAAGISEGAEGVPAQPPVPPEPAPGAVSPPPPPPPEEEEEGAVPLLGGALQRQIRGIPGLDVEDDEEGGGGAP

target: T1, full length TRIM14 ORF tagged at the C-terminus with 3xFLAG (human); assay: affinity purification with mass spectrometry; anti-FLAG affinity gel IP of C-terminally 3xFLAG-tagged TRIM14 from HEK293T lysate 48 h after transfection, overnight at 4 °C; eluted with 0.15% TFA, trypsin, LC-MS/MS; proteins also found with empty FLAG vector excluded; hits seen in at least 2 of 3 biological experiments

Molecule	binding
26S proteasome non-ATPase regulatory subunit 4 (from UniProt P55036 1-377)	binds
26S proteasome non-ATPase regulatory subunit 6 f (from UniProt Q15008 1-389)	binds
Acidic leucine-rich nuclear phosphoprotein 32 family member A (from UniProt P39687 1-249)	binds
Apoptosis-inducing factor 1, mitochondrial (from UniProt O95831)	binds
BAG family molecular chaperone regulator 2 (from UniProt O95816 1-211)	binds
Bifunctional glutamate/proline--tRNA ligase (from UniProt P07814 1-1512)	binds
CAD protein (from UniProt P27708 1-2225)	binds
DNA damage-binding protein 1 (from UniProt Q16531 1-1140)	binds
DNA-dependent protein kinase catalytic subunit (from UniProt P78527 1-4128)	binds
DnaJ homolog subfamily A member 2 (from UniProt O60884 1-412)	binds
DnaJ homolog subfamily B member 1 (from UniProt P25685 1-340)	binds
E3 ubiquitin-protein ligase CHIP (from UniProt Q9UNE7 1-303)	binds
E3 ubiquitin-protein ligase UBR5 (from UniProt O95071 1-2799)	binds
Golgi-specific brefeldin A-resistance guanine nucleotide exchange factor 1 (from UniProt Q92538 1-1860)	binds
HEAT repeat-containing protein 6 (from UniProt Q6AI08 1-1181)	binds
Heat shock 70 kDa protein 4L (from UniProt O95757 1-839)	binds
Interleukin-1 receptor-associated kinase 1 (from UniProt P51617 1-712)	binds
Isoform 1 of Fanconi anemia group I protein (from UniProt Q9NVI1-1 1-1268)	binds
Isoform 2 of A-kinase anchor protein 12 (from UniProt Q02952-2 1-1684)	binds
Isoform 2 of E3 ubiquitin-protein ligase HUWEI (from UniProt Q7Z6Z7-2 1-4358)	binds
Isoform 2 of HCLS1-associated protein X-1 (from UniProt O00165-2 1-287)	binds
Isoform 2 of RING finger protein 126 (human (endogenous in HEK293T))	binds
Isoform 5 of Protein transport protein (from UniProt O15027-5 1-2379)	binds
Isoform long of proteasome subunit alpha type-1 (from UniProt P25786-2 1-269)	binds

Molecule	binding
La Ribonucleoprotein Domain Family Member 4B (from UniProt Q92615 1-738)	binds
Mitotic-spindle organizing protein 2A (from UniProt Q6P582 1-158)	binds
Prefoldin subunit 2 (from UniProt Q9UHV9 1-154)	binds
Programmed cell death protein 5 (from UniProt O14737 1-125)	binds
Proteasomal ubiquitin receptor ADRM1 (from UniProt Q16186 1-407)	binds
Proteasome 26S Subunit, ATPase 6 (from UniProt P62333 1-389)	binds
Proteasome activator complex subunit 3 (from UniProt P61289 1-254)	binds
Proteasome subunit alpha type-2 (from UniProt P25787 1-234)	binds
Proteasome subunit alpha type-7 (from UniProt O14818 1-248)	binds
Pumilio homolog 1 (from UniProt Q14671 1-1186)	binds
S-phase kinase-associated protein 1 (from UniProt P63208 1-163)	binds
Sequestosome-1 p62 (from UniProt Q13501 1-440)	binds
Structural maintenance of chromosomes protein 2 (from UniProt O95347 1-1197)	binds
Structural maintenance of chromosomes protein (from UniProt Q9NTJ3 1-1288)	binds
Translational activator GCN1 (from UniProt Q92616 1-2671)	binds
Tubulin alpha-1C chain (from UniProt Q9BQE3 1-449)	binds
Tubulin beta-2A chain (from UniProt Q13885 1-445)	binds
Tubulin beta-4A chain (from UniProt P04350 1-444)	binds
Tubulin beta-6 chain (from UniProt Q9BUF5 1-446)	binds
Tubulin beta-8 chain (from UniProt Q3ZCM7 1-444)	binds
B1	binds
B2	binds
B3	binds
